# Experimental data taken from publication PMC7709239.
# By UniProt entry, the sequences of proteins in these tests, tags left out. Residues count along the entry.
# UniProt P18669: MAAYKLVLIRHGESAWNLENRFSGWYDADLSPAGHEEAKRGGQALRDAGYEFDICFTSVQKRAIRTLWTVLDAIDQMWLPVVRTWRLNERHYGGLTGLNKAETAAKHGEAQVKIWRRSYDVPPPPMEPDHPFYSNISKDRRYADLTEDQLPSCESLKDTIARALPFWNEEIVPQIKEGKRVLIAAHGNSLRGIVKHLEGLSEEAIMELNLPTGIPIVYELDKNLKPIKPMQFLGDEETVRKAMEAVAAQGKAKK
# UniProt P68371: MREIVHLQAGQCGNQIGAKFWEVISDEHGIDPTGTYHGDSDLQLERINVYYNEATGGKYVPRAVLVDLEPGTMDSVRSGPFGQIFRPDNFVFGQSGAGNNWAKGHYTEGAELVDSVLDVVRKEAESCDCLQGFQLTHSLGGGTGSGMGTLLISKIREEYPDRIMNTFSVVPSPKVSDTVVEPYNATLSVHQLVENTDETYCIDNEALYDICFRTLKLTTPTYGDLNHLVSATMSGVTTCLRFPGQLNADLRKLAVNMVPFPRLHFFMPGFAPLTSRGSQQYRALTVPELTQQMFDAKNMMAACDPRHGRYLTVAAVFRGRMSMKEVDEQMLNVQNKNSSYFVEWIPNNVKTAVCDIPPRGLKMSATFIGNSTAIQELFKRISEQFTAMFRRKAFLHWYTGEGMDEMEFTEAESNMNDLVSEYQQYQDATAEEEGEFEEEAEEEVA
# UniProt P08758: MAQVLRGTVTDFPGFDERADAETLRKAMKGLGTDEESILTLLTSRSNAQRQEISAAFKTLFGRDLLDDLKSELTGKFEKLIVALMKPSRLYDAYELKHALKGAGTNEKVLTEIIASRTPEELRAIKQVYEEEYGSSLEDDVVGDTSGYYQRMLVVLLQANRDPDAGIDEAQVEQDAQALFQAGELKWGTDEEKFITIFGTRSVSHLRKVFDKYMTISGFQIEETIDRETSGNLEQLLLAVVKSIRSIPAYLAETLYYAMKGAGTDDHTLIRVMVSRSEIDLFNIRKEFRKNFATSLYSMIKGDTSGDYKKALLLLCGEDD
# UniProt Q702N8: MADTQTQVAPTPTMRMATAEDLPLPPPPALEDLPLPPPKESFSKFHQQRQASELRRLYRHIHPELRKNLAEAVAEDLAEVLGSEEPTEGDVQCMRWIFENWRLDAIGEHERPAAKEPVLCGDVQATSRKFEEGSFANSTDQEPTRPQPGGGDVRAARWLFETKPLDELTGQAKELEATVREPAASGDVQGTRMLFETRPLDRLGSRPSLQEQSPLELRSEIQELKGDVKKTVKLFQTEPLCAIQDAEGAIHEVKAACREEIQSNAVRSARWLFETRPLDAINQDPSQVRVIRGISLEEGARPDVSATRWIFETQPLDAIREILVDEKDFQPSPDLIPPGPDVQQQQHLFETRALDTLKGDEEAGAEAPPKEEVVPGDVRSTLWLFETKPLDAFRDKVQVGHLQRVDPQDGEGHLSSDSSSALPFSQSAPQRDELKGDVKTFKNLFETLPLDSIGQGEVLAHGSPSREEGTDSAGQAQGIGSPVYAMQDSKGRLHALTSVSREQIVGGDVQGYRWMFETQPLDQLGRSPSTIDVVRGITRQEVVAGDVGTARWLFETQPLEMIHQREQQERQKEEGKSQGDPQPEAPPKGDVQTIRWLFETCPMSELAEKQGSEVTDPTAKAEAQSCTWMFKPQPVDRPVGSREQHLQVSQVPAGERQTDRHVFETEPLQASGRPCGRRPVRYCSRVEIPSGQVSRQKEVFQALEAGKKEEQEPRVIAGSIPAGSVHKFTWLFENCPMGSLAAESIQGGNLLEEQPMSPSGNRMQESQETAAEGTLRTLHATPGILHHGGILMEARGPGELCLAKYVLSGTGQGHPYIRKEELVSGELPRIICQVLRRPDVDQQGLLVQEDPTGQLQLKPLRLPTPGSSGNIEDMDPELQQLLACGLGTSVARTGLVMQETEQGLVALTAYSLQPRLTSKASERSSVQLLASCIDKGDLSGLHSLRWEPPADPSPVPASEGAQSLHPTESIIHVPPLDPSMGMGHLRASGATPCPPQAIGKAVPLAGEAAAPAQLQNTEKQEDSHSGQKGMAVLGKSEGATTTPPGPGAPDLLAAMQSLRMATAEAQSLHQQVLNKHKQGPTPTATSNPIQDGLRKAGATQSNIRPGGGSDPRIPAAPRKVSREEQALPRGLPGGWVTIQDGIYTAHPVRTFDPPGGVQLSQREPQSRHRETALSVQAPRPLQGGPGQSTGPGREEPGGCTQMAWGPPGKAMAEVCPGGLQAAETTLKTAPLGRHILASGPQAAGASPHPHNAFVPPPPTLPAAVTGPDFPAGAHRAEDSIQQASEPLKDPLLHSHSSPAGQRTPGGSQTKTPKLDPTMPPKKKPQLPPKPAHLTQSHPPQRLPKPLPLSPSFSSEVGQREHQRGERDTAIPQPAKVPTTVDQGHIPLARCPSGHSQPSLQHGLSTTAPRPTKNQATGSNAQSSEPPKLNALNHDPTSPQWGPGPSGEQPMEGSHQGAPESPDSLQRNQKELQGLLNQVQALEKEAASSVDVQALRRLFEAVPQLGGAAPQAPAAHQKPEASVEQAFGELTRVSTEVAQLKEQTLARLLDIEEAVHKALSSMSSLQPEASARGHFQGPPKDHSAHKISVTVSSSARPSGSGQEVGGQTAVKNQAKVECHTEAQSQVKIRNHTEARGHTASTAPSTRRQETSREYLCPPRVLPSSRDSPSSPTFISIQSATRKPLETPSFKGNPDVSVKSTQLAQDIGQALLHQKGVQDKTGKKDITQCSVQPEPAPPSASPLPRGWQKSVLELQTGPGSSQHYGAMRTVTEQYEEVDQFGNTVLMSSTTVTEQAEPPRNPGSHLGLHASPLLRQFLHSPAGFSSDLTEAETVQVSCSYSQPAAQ
# UniProt Q9BUF5: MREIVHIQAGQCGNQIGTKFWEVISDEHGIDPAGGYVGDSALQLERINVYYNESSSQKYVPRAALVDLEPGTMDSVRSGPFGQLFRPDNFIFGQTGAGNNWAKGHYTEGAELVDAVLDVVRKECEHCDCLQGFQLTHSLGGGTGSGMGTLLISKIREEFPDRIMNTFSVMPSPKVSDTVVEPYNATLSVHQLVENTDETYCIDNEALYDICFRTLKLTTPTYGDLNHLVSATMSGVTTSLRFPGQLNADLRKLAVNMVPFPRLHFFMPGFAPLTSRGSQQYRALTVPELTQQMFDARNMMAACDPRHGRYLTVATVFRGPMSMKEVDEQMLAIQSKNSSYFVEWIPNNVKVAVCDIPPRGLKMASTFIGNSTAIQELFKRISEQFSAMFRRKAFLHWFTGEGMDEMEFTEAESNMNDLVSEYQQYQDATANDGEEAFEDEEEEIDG
# UniProt P07437: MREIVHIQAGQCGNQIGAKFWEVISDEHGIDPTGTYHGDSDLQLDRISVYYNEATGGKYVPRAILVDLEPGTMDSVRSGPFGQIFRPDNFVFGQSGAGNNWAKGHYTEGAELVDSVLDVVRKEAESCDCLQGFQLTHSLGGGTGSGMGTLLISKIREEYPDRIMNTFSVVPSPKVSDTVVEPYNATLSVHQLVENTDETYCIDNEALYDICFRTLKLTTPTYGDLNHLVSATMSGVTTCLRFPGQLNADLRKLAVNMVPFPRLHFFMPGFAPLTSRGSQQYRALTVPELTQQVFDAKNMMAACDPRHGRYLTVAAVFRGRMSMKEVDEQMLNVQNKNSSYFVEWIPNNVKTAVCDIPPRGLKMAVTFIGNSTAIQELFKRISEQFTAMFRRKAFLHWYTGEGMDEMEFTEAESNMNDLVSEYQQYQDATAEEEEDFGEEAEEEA
# UniProt P14314, residues 15-528: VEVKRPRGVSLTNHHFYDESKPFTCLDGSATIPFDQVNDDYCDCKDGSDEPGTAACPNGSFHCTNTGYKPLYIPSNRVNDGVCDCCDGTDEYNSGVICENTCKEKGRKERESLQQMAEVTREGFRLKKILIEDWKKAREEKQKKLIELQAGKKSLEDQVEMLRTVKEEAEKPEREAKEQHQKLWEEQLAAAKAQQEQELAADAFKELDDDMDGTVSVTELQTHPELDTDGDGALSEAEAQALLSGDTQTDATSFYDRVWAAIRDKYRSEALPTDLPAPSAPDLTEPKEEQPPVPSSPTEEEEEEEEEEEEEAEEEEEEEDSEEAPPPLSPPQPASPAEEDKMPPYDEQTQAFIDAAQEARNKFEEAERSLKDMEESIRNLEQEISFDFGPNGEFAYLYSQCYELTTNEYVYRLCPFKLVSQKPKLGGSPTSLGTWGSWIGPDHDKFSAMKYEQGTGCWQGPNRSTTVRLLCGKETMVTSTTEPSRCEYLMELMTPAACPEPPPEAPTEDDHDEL
# No constants are given. Whether binding was seen depends on the method and setting. Binding seen in cells or lysates may run through a third protein. A yes stands for co-enrichment or nearness to the bait. Other partners may have been found. Sequences can lack the tags named with a protein.
# T1: GST-mouse Popdc1 (aa 114 to 357) fusion protein (mouse) (UniProt Q9ES83)
# T1 sequence: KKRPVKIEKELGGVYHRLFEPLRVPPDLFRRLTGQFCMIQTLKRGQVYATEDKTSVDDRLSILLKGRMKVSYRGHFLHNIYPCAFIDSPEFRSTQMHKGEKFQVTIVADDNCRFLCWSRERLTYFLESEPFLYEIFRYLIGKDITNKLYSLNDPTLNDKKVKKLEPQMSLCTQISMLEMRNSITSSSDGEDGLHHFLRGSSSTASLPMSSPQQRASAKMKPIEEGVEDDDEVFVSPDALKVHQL
# B1: PDZ and LIM domain protein 3 (protein, UniProt Q53GG5 1-364)
# chain: MPQTVILPGPAPWGFRLSGGIDFNQPLVITRITPGSKAAAANLCPGDVILAIDGFGTESMTHADAQDRIKAAAHQLCLKIDRGETHLWSPQVSEDGKAHPFKINLESEPQDGNYFEHKHNIRPKPFVIPGRSSGCSTPSGIDCGSGRSTPSSVSTVSTICPGDLKVAAKLAPNIPLEMELPGVKIVHAQFNTPMQLYSDDNIMETLQGQVSTALGETPLMSEPTASVPPESDVYRMLHDNRNEPTQPRQSGSFRVLQGMVDDGSDDRPAGTRSVRAPVTKVHGGSGGAQRMPLCDKCGSGIVGAVVKARDKYRHPECFVCADCNLNLKQKGYFFIEGELYCETHARARTKPPEGYDTVTLYPKA
# B2: Lamina-associated polypeptide 2 (beta/gamma) (protein, UniProt P42167 1-454)
# chain: MPEFLEDPSVLTKDKLKSELVANNVTLPAGEQRKDVYVQLYLQHLTARNRPPLPAGTNSKGPPDFSSDEEREPTPVLGSGAAAAGRSRAAVGRKATKKTDKPRQEDKDDLDVTELTNEDLLDQLVKYGVNPGPIVGTTRKLYEKKLLKLREQGTESRSSTPLPTISSSAENTRQNGSNDSDRYSDNEEDSKIELKLEKREPLKGRAKTPVTLKQRRVEHNQSYSQAGITETEWTSGSSKGGPLQALTRESTRGSRRTPRKRVETSEHFRIDGPVISESTPIAETIMASSNESLVVNRVTGNFKHASPILPITEFSDIPRRAPKKPLTRAEVGEKTEERRVERDILKEMFPYEASTPTGISASCRRPIKGAAGRPLELSDFRMEESFSSKYVPKYVPLADVKSEKTKKGRSIPVWIKILLFVVVAVFLFLVYQAMETNQVNPFSNFLHVDPRKSN
# B3: Fructose-bisphosphate aldolase A (enzyme, UniProt P04075 1-364)
# chain: MPYQYPALTPEQKKELSDIAHRIVAPGKGILAADESTGSIAKRLQSIGTENTEENRRFYRQLLLTADDRVNPCIGGVILFHETLYQKADDGRPFPQVIKSKGGVVGIKVDKGVVPLAGTNGETTTQGLDGLSERCAQYKKDGADFAKWRCVLKIGEHTPSALAIMENANVLARYASICQQNGIVPIVEPEILPDGDHDLKRCQYVTEKVLAAVYKALSDHHIYLEGTLLKPNMVTPGHACTQKFSHEEIAMATVTALRRTVPPAVTGITFLSGGQSEEEASINLNAINKCPLLKPWALTFSYGRALQASALKAWGGKKENLKAAQEEYVKRALANSLACQGKYTPSGQAGAAASESLFVSNHAY
# B4: Heat shock protein beta-2 (protein, UniProt Q16082 1-182)
# chain: MSGRSVPHAHPATAEYEFANPSRLGEQRFGEGLLPEEILTPTLYHGYYVRPRAAPAGEGSRAGASELRLSEGKFQAFLDVSHFTPDEVTVRTVDNLLEVSARHPQRLDRHGFVSREFCRTYVLPADVDPWRVRAALSHDGILNLEAPRGGRHLDTEVNEVYISLLPAPPDPEEEEEAAIVEP
# Target: T1, GST-mouse Popdc1 (aa 114 to 357) fusion protein (mouse)
# Assay: affinity purification with mass spectrometry; GST-tagged bait on glutathione high capacity magnetic agarose beads, incubated with cultured human myotube extract in RIPA buffer; captured proteins digested with trypsin, nanoLC MSMS; control: beads with no bait; only the target purified
row,binding,Molecule
1,binds,Phosphoglycerate mutase 1 (from UniProt P18669 1-254) (enzyme)
2,binds,Tubulin beta-4B chain (from UniProt P68371 1-445)
3,binds,Annexin A5 (from UniProt P08758 1-320)
4,binds,40S ribosomal protein S30 (human (endogenous in human myotubes))
5,binds,Xin actin-binding repeat-containing protein 1 (from UniProt Q702N8 1-1843)
6,binds,Tubulin beta-6 chain (from UniProt Q9BUF5 1-446)
7,binds,Tubulin beta chain (from UniProt P07437 1-444)
8,binds,Glucosidase 2 subunit beta (from UniProt P14314 15-528)
9,binds,"ATP synthase subunit beta, mitochondrial (from UniProt P06576 48-529)"
10,binds,B1
11,binds,B2
12,binds,B3
13,binds,B4
